These are yes or no findings as the source states them, for the method shown. In cells and extracts the contact can be indirect. Some results given as binding are weak or reduced against the parent protein; the word gives no strength.
Biological target: human EBP, co-expressed as N-terminal His-tag EBP and N-terminal Strep-tag EBP (human) (UniProt Q15125)
Assay: pull-down; His-EBP and Strep-EBP co-expressed in HEK-293S GnTI- cells; purified on Strep-Tactin column and by gel filtration; incubated with Strep-Tactin Sepharose at 4 °C for 2 h; Western blot with anti-His or anti-Strep

The chains behind the UniProt entries cited, without tags or fusion partners. Residues count along the entry.
UniProt Q15125, residues 2-230: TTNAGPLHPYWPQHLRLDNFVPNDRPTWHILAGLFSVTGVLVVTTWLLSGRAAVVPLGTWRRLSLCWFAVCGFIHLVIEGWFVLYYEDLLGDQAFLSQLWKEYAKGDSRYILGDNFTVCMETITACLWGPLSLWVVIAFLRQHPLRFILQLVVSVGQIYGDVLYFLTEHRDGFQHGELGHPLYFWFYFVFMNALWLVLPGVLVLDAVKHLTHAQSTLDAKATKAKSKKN

binding: binds
Substance: human EBP, co-expressed as N-terminal His-tag EBP and N-terminal Strep-tag EBP (from UniProt Q15125 2-230) (enzyme)

From publication PMC6549186
